Assay results as given in the supplement of paper PMC12823440, “Inhibitors supercharge kinase turnover through native proteolytic circuits” (Nature, 2025).
Structures can show the parent of a compound that is named as a salt. The list shows a part of the results. The calls rarely recur for the same compound in another form.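 In K562 cells expressing nanoluciferase-fused kinases, luminescence was recorded at 4 h intervals between 2 and 18 h, normalized as percent of control with DMSO at 100% and a positive control at 0%. A significant (2 sigma) signal drop marks a time point as decreased. The authors' rule for a hit is not shown and takes in more than the number of time points.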

Amino acid sequences for entries named in this document (tags omitted). A change or cut given only in a name is not applied to a line headed by its entry.
UniProt P53671: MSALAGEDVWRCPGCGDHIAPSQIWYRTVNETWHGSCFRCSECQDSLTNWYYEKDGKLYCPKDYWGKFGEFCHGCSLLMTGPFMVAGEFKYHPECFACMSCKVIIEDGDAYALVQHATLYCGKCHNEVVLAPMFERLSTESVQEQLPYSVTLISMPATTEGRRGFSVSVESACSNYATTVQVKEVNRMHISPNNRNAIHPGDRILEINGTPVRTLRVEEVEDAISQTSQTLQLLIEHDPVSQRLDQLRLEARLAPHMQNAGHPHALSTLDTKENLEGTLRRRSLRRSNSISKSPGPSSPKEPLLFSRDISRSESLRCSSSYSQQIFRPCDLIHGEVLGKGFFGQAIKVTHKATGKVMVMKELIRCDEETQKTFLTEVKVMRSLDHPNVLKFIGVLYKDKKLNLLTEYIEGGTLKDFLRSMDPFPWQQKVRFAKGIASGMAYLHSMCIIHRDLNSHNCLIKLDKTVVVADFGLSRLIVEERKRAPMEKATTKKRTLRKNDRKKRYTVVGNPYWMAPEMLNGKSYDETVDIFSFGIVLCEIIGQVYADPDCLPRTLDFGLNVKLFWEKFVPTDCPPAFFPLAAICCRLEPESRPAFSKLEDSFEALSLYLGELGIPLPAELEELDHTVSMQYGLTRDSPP

The compounds below were run against LIMK2 (UniProt P53671) (assay: kinase-Nluc reporter destabilization hit call (1 = scored as downregulated) (binary); higher = compound decreases kinase abundance). Details: 10 µM; K562; 2-18 h.

SMILES	kinase-Nluc reporter destabilization hit call
COc1nccc(-c2c(-c3ccc(F)cc3)ncn2C2CCNCC2)n1	inactive: 0
COc1ccc(-c2c[nH]c3nccc(-c4ccsc4)c23)c(OC)c1	inactive: 0
C[C@@]1(C(=O)Nc2ccc(F)nc2)CCCN1c1nc(Nc2cc(C3CC3)n[nH]2)c2cccn2n1	inactive: 0
Cc1ccc(Nc2nccc(N(C)c3ccc4c(C)n(C)nc4c3)n2)cc1S(N)(=O)=O [Pazopanib]	inactive: 0
Cc1cc2c(F)c(Oc3ncnn4cc(OC[C@@H](C)O)c(C)c34)ccc2[nH]1 [Brivanib]	inactive: 0
N#CC(=Cc1cc(Cl)cc(Cl)c1)c1cccnc1	inactive: 0
C=CC(=O)Nc1cc2c(Nc3ccc(F)c(Cl)c3)ncnc2cc1OCCCN1CCOCC1 [Canertinib]	inactive: 0
Cc1ccc(Nc2nccc(N(C)c3ccc4c(C)n(C)nc4c3)n2)cc1S(N)(=O)=O [Pazopanib (Hydrochloride)]	inactive: 0
CC(C)(C)n1nc(-c2ccc(Cl)cc2)c2c(N)ncnc21	inactive: 0
COc1cc2ncnc(Nc3ccc(F)c(Cl)c3)c2cc1OCCCN1CCOCC1 [Gefitinib]	inactive: 0
O=C(Nc1cccc(Cl)c1)Nc1ncc(CCNc2ncnc3ccsc23)s1 [SNS-314 (mesylate)]	inactive: 0
CC[C@@H]1C(=O)N(C)c2cnc(Nc3ccc(C(=O)NC4CCN(C)CC4)cc3OC)nc2N1C1CCCC1	inactive: 0
CC#CC(=O)N1CCC[C@H]1c1nc(-c2ccc(C(=O)Nc3ccccn3)cc2)c2c(N)nccn12 [Acalabrutinib]	inactive: 0
O=S(=O)(c1cccc2c(O)nccc12)N1CCCNCC1 [Hydroxyfasudil (hydrochloride)]	inactive: 0
O=C1Cc2c([nH]c3ccc(Br)cc23)-c2ccccc2N1 [Kenpaullone]	inactive: 0
O=S(=O)(c1cccc2c(O)nccc12)N1CCCNCC1 [Hydroxyfasudil]	inactive: 0
CC(C)N(CCC(=O)c1ccc2ccccc2c1)Cc1ccccc1	inactive: 0
O=C(NCCCNc1nc(Nc2cccc(CN3CCOCC3)c2)ncc1C1CC1)C1CCC1	inactive: 0
CNC(=O)c1cc(Oc2ccc(NC(=O)Nc3ccc(Cl)c(C(F)(F)F)c3)cc2)ccn1 [Sorafenib (Tosylate)]	inactive: 0

Two entries from above, bar-delimited:
SMILES | kinase-Nluc reporter destabilization hit call
COc1ccc(-c2c[nH]c3nccc(-c4ccsc4)c23)c(OC)c1 | inactive: 0
O=C(NCCCNc1nc(Nc2cccc(CN3CCOCC3)c2)ncc1C1CC1)C1CCC1 | inactive: 0
